Drawing on article PMC5739603, this text covers binding for two molecules.

Assay [1] deals with V5-ΔMCM7 (C-terminus deletion mutant of MCM7). The experiment in a line: co-IP; A549 cells with FLAG-MCM7 (full length) or V5-ΔMCM7; lamin B2 of the lysate found by blot.
Assay [2] has as its target GST-MCM7-C (C-terminal fragment of MCM7, 219 amino acids). The experiment in a line: pull-down; GST-MCM7 fragments purified on glutathione-Sepharose 4B, with A549 cell lysates; bound protein found by immunoblot; only the target purified. For orientation: A western blot detects proteins with antibodies after separation by electrophoresis.
Assay [3] has the same target. The assay is described as follows: pull-down; GST pull-down with MCM7-C and lysates, different amounts of anti-LMNB2 antibody (1, 2.5, 5 ug) as printed; RB read by blot; only the target purified.

Results are given in words; binding and its absence hold for the method and conditions named. In cells and extracts the contact can be indirect. For some of these results: Binding calls can cover weak binding; strength is not graded here.

B1: lamin B2 (endogenous, A549) (protein, UniProt Q03252 1-620)
chain: MSPPSPGRRREQRRPRAAATMATPLPGRAGGPATPLSPTRLSRLQEKEELRELNDRLAHYIDRVRALELENDRLLLKISEKEEVTTREVSGIKALYESELADARRVLDETARERARLQIEIGKLRAELDEVNKSAKKREGELTVAQGRVKDLESLFHRSEVELAAALSDKRGLESDVAELRAQLAKAEDGHAVAKKQLEKETLMRVDLENRCQSLQEELDFRKSVFEEEVRETRRRHERRLVEVDSSRQQEYDFKMAQALEELRSQHDEQVRLYKLELEQTYQAKLDSAKLSSDQNDKAASAAREELKEARMRLESLSYQLSGLQKQASAAEDRIRELEEAMAGERDKFRKMLDAKEQEMTEMRDVMQQQLAEYQELLDVKLALDMEINAYRKLLEGEEERLKLSPSPSSRVTVSRATSSSSGSLSATGRLGRSKRKRLEVEEPLGSGPSVLGTGTGGSGGFHLAQQASASGSVSIEEIDLEGKFVQLKNNSDKDQSLGNWRIKRQVLEGEEIAYKFTPKYILRAGQMVTVWAAGAGVAHSPPSTLVWKGQSSWGTGESFRTVLVNADGEEVAMRTVKKSSVMRENENGEEEEEEAEFGEEDLFHQQGDPRTTSRGCYVM
As for B1, the binding entry in assay [1] is “no binding”; in assay [2], “binds”.

B2: RB (retinoblastoma protein) in A549 lysate (protein, UniProt P06400 1-928)
chain: MPPKTPRKTAATAAAAAAEPPAPPPPPPPEEDPEQDSGPEDLPLVRLEFEETEEPDFTALCQKLKIPDHVRERAWLTWEKVSSVDGVLGGYIQKKKELWGICIFIAAVDLDEMSFTFTELQKNIEISVHKFFNLLKEIDTSTKVDNAMSRLLKKYDVLFALFSKLERTCELIYLTQPSSSISTEINSALVLKVSWITFLLAKGEVLQMEDDLVISFQLMLCVLDYFIKLSPPMLLKEPYKTAVIPINGSPRTPRRGQNRSARIAKQLENDTRIIEVLCKEHECNIDEVKNVYFKNFIPFMNSLGLVTSNGLPEVENLSKRYEEIYLKNKDLDARLFLDHDKTLQTDSIDSFETQRTPRKSNLDEEVNVIPPHTPVRTVMNTIQQLMMILNSASDQPSENLISYFNNCTVNPKESILKRVKDIGYIFKEKFAKAVGQGCVEIGSQRYKLGVRLYYRVMESMLKSEEERLSIQNFSKLLNDNIFHMSLLACALEVVMATYSRSTSQNLDSGTDLSFPWILNVLNLKAFDFYKVIESFIKAEGNLTREMIKHLERCEHRIMESLAWLSDSPLFDLIKQSKDREGPTDHLESACPLNLPLQNNHTAADMYLSPVRSPKKKGSTTRVNSTANAETQATSAFQTQKPLKSTSLSLFYKKVYRLAYLRLNTLCERLLSEHPELEHIIWTLFQHTLQNEYELMRDRHLDQIMMCSMYGICKVKNIDLKFKIIVTAYKDLPHAVQETFKRVLIKEEEYDSIIVFYNSVFMQRLKTNILQYASTRPPTLSPIPHIPRSPYKFPSSPLRIPGGNIYISPLKSPYKISEGLPTPTKMTPRSRILVSIGESFGTSEKFQKINQMVCNSDRVLKRSAEGSNPPKPLKKLRFDIEGSDEADGSKHLPGESKFQQKLAEMTSTRTRMQKQKMNDSMDTSNKEEK
As for B2, the binding result in assay [2] and in assay [3] was “binds” each time.
